Laboratory results published in PubChem BioAssay AID485314 (National Center for Advancing Translational Sciences (NCATS), 2010).
About 4,500 (1.3%) of roughly 340,000 compounds were called active. Inconclusive means that the source gave no clear call. Such entries were picked first, then a sample of the others. Calls come from the whole dose curve; as a rule, active = well fitted inhibition curve with a large enough effect; inconclusive = small, poorly fitted or top-dose-only effect, or another doubt; inactive = no such curve, though single readings can be large or run the other way. Potencies of inconclusive entries are doubtful fits and often do not repeat.

target: DNA polymerase beta (Homo sapiens) (UniProt P06746); test: qHTS Assay for Inhibitors of DNA Polymerase Beta; settings: Pol beta primer extension/strand displacement, fluorescence kinetic; activity change, negative = inhibition: at 114 µM (top of the series)
Procedure, shortened: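 Reaction started by 50 nM substrate onto compound-treated Pol beta (10 nM, 15 min preincubation, room temperature); plates read at 0 min and 10 min. Normalized concentration-effect data fitted by four-parameter Hill equation.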
% is set by controls: 0 for no effect and ±100 for the full control effect; potency is the fitted concentration of half-maximal effect.

Row | SMILES | activity change, negative = inhibition | Potency
1 | CCOc1ccc(NC(=O)CC2C(=O)N(c3ccccc3)C(=O)N2C2CCCCC2)cc1 (centres undefined) | inactive: 12.1% | 
2 | COc1ccccc1COC(=O)N/C=C/c1ccco1 |  | inconclusive: 28.2 µM [inhibitor, full curve]
3 | Cc1c(C(=O)N2CCCC2)oc2ccc(Br)cc12 | inconclusive: -86.5% [inhibitor] | 
4 | CC(C)C(=O)N(Cc1ccccc1)S(=O)(=O)c1ccc2c(c1)oc(=O)n2C |  | inconclusive: 0.501 µM [inhibitor, full curve, poor fit]
5 | O=C1c2ccc(Oc3ccc([N+](=O)[O-])cc3)cc2C(=O)N1CCCO |  | inconclusive: 39.8 µM [inhibitor, single point]
6 | COC(=O)c1c(NC(=O)CN2CCN(Cc3ccc4c(c3)OCO4)CC2)sc(C)c1C |  | inconclusive: 39.8 µM [inhibitor, partial curve]
7 | Cc1ccc2nc(N3CCN(Cc4ccc(F)cc4)C3=O)c(C)cc2c1 |  | inconclusive: 0.141 µM [inhibitor, full curve, poor fit]
8 | Cc1nc2nc(SCC(=O)O)nn2c(C)c1Cc1c(F)cccc1Cl |  | inconclusive: 89.1 µM [inhibitor, single point]
9 | Cc1ccc(Cl)cc1NC(=O)Cn1c(=O)n(CCCS(=O)(=O)C2CCCCC2)c(=O)c2ccccc21 | inactive: 0.791% | 
10 | CC1C/C(=C/c2ccco2)C(=O)/C(=C/c2ccco2)C1 (centres undefined) |  | active: 3.55 µM
11 | COCCN(CC(=O)NCc1ccc2c(c1)OCO2)C(=O)CCC(=O)Nc1nccs1 | inactive: 7.68% | 
12 | c1ccc(CCCN2CCN(c3ccccn3)CC2)cc1 |  | inconclusive: 89.1 µM [inhibitor, single point]
13 | COc1ccc(Cn2c(=O)sc3ccccc32)cc1 |  | inconclusive: 56.2 µM [inhibitor, partial curve]
14 | Cc1ccc2sc3ccc(NC(=O)c4ccccc4Cl)cc3c(=O)c2c1 |  | inconclusive: 5.62 µM [inhibitor, full curve]
15 | COc1ccc(C(=O)/C=C/c2cc(C(=O)O)cc3c2OCOC3)c(O)c1 |  | inconclusive: 20 µM [inhibitor, full curve]
16 | CCc1ccc(N2CC(C(=O)NC3CC3)CC2=O)cc1 (centres undefined) | inactive: -11.3% | 
17 | CC(C)OC(=O)C1CC=CCC1C(=O)Nc1ccc(Cl)cc1 (centres undefined) |  | inconclusive: 89.1 µM [inhibitor, single point]
18 | O=C(OCCN=C1NS(=O)(=O)c2ccccc21)C1CC(=O)N(c2ccc(Cl)cc2)C1 (centres undefined) |  | inconclusive: 12.6 µM [inhibitor, partial curve, poor fit]
19 | CC(O)CN1CC(O)=C(c2nc3ccccc3s2)C1=N (centres undefined) |  | inconclusive: 89.1 µM [inhibitor, single point]
20 | Cc1c(Br)ccc(NC(=O)Cn2nc(-c3cccs3)ccc2=O)c1C |  | active: 17.8 µM
21 | O=C(Cn1c(=O)oc2cc(S(=O)(=O)N3CCCCCC3)ccc21)NCc1ccccc1Cl | inactive: 8.68% | 
22 | CN1C(=O)c2cccc3c(N(C)C)ccc(c23)C1=O |  | inconclusive: 0.316 µM [inhibitor, full curve, poor fit]
23 | Cc1cc(C(=O)CSc2nnc(-c3ccco3)o2)c(C)n1Cc1ccco1 |  | active: 44.7 µM

Row | SMILES | activity change, negative = inhibition | Potency
24 | COc1ccc(-n2ccc(=O)c(C(=O)Nc3ccc(S(=O)(=O)Nc4nccs4)cc3)n2)cc1 | inconclusive: -37.1% [inhibitor] | 
25 | COc1ccc(CCN2CC34C=CC(O3)C(C(=O)NCc3ccccc3)C4C2=O)cc1OC (centres undefined) |  | inconclusive: 3.16 µM [inhibitor, partial curve, poor fit]
26 | Cc1cnc(C(=O)NCCc2ccc(Cl)cc2)cn1 | inconclusive: -56.8% [inhibitor] | 
27 | CCCCNS(=O)(=O)c1ccc2nc(-c3cccnc3)cc(C(=O)NC3CC3)c2c1 |  | inconclusive: 44.7 µM [inhibitor, partial curve, poor fit]
28 | N#C/C(=C/c1ccc(N2CCCC2)c([N+](=O)[O-])c1)c1nc2ccccc2[nH]1 | inactive: 52.7% | 
29 | Nc1nnc(CC(=O)N/N=C/c2ccc(-c3ccc(F)cc3)o2)s1 | inactive: -14.8% | 
30 | c1ccc(-c2noc(-c3ccc4c(c3)OCO4)n2)nc1 |  | inconclusive: 28.2 µM [inhibitor, single point]
31 | O=C(c1ccc(CS(=O)(=O)c2ccccc2)o1)N1CCN(c2ccccc2)CC1 | inconclusive: -97.7% [inhibitor] | 
32 | O=C(c1ccc(CSc2nc3ccncc3n2Cc2ccc(F)cc2)cc1)N1CCCCCC1 |  | inconclusive: 3.98 µM [inhibitor, single point]
33 | Cc1ccc(-c2nc3c4ccccc4[nH]c(=O)n3n2)cc1 | inactive: -20% | 
34 | Cc1ccc(N2CCN(S(=O)(=O)c3nnc(NC(=O)c4ccco4)s3)CC2)cc1 |  | inconclusive: 89.1 µM [inhibitor, single point]
35 | O=C(NCCC1=CCCCC1)c1ccc(Br)o1 |  | inconclusive: 89.1 µM [inhibitor, single point]
36 | O=[N+]([O-])c1ccccc1/C=N\N1CCN(Cc2ccccc2Cl)CC1 |  | inconclusive: 1.58 µM [inhibitor, full curve, poor fit]
37 | NC1=NC2(CCC(c3ccccc3)CC2)n2c(nc3ccccc32)N1 (centres undefined) |  | inconclusive: 89.1 µM [inhibitor, single point]
38 | COc1ccc(/C(C)=N/NC(=O)c2nnn(-c3nonc3N)c2-c2ccccc2)cc1 |  | inconclusive: 15.8 µM [inhibitor, full curve]
39 | COc1ccc(COc2ccsc2C(=O)Nc2ccc(Cl)cc2)cc1 |  | inconclusive: 50.1 µM [inhibitor, partial curve]
40 | CCc1ccc(NC(=O)Cn2nc3c4ccccc4n(Cc4ccccc4)cc-3c2=O)cc1 |  | inconclusive: 50.1 µM [inhibitor, partial curve]
41 | CN1CCN(CC(=O)Nc2nc3c(s2)CCCC3)CC1 | inconclusive: -101% [inhibitor] | 
42 | CCOc1ccc(C(=O)N/N=C/c2ccc(-c3ccc(S(=O)(=O)Nc4ncccn4)cc3)o2)cc1 | inactive: -3.38% | 
43 | N=C(N)SCc1ncccc1O | inactive: -2.61% | 
44 | O=[N+]([O-])c1ccc(N2N=C(c3ccco3)CC2c2ccccc2)cc1 (centres undefined) |  | inconclusive: 8.91 µM [inhibitor, partial curve]
45 | COC(=O)c1ccccc1NC(=O)c1ccc2nccnc2c1 |  | active: 3.16 µM
46 | COc1cccc(CN(C(=O)/C=C/c2ccco2)C2CCS(=O)(=O)C2)c1 (centres undefined) |  | inconclusive: 89.1 µM [inhibitor, single point]

Row | SMILES | activity change, negative = inhibition | Potency
47 | COc1cc(/C=C(\C#N)c2nc3ccccc3[nH]2)cc(Cl)c1OCc1ccccc1Cl |  | active: 3.16 µM
48 | CC1CCCCC1NC(=O)CN1C(=O)NC(C)(c2ccc(OC(F)F)cc2)C1=O (centres undefined) |  | inconclusive: 35.5 µM [inhibitor, partial curve]
49 | CCN(CCCNC(=O)CN(C)S(=O)(=O)c1ccc2c(c1)CCC(=O)N2)c1cccc(C)c1 | inactive: 24.4% | 
50 | O=C(CSc1nnc(SCc2ccc(Cl)cc2)s1)N/N=C/c1ccc(C(=O)O)cc1 | inactive: 18% | 
51 | Cc1ccc(Oc2nc3ccccn3c(=O)c2/C=C(\C#N)C(=O)NC2CCS(=O)(=O)C2)cc1 (centres undefined) |  | inconclusive: 89.1 µM [inhibitor, single point]
52 | CC(=O)Nc1ccc(-c2nc3cc(Cl)ccc3o2)cc1 |  | inconclusive: 15.8 µM [inhibitor, full curve, poor fit]
53 | CCc1cccc(C)c1NC(=O)c1cc(S(=O)(=O)NCc2ccccc2Cl)ccc1F | inactive: -9.35% | 
54 | O=[N+]([O-])c1cc(CN(CCO)CCO)ccc1O |  | active: 50.1 µM
55 | N#Cc1cc2c(nc1SCC(=O)Nc1sc3c(c1C#N)CCC3)CCC2 |  | inconclusive: 14.1 µM [inhibitor, full curve, poor fit]
56 | CCC(NC(=S)NCc1ccccc1)C(=O)O (centres undefined) |  | inconclusive: 100 µM [inhibitor, single point]
57 | C#CCOCCOCCOCCNc1nc(N2CCN(C(=O)[C@H](Cc3ccc(O)cc3)n3cc([C@@H](N)C(C)CC)nn3)CC2)nc(N2CCN(C(=O)[C@H](Cc3cc4ccccc4[nH]3)n3cc([C@@H](N)C(C)CC)nn3)CC2)n1 (some centres undefined) |  | active: 25.1 µM
58 | CS(=O)(=O)c1ccc2nc(NC(=O)c3ccccc3)sc2c1 | inactive: -0.721% | 
59 | N#C/C(=C\c1ccc(O)c(Br)c1)C(=O)NCc1ccccc1 | inactive: -0.367% | 
60 | O=C(Nc1cccnc1)c1ccco1 |  | inconclusive: 2.24 µM [inhibitor, partial curve, poor fit]
61 | COC(=O)C1=C(C)N(C)C(=O)NC1c1cc2c(cc1[N+](=O)[O-])OCO2 (centres undefined) |  | inconclusive: 8.91 µM [inhibitor, full curve, poor fit]
62 | Cc1cccc(OCCSc2nc(N)cc(N)n2)c1 |  | inconclusive: 20 µM [inhibitor, partial curve, poor fit]
63 | O=C(Nc1nnc(Cc2ccc(Cl)cc2)s1)c1cccnc1 |  | active: 22.4 µM
64 | CCCCCC(=O)N1CCCC(c2nc(-c3ccc(OC)cc3)no2)C1 (centres undefined) |  | inconclusive: 39.8 µM [inhibitor, single point]
65 | COc1ccc(CCNC(=O)CCCCn2c(=O)c3ccccc3n(Cc3ccccc3C)c2=O)cc1OC |  | inconclusive: 56.2 µM [inhibitor, partial curve]
66 | Cc1nc2ncnn2c(C)c1CCC(=O)N1CCN(c2ccccc2)CC1 |  | inconclusive: 1.26 µM [inhibitor, full curve, poor fit]
67 | CSc1ncc(CN2CCN(C3CCCCC3)C(CCO)C2)cn1 (centres undefined) | inactive: 3.04% | 
68 | COc1cccc(NC(=O)Cn2nnc(-c3nc(-c4ccccc4)no3)c2N)c1 |  | active: 17.8 µM
69 | CCOc1ccc(C(=O)Nc2c(C(=O)c3ccc(OC)cc3)oc3ccccc23)cc1 | inactive: 2.72% | 

Grouped by structure, the compounds so far with bromine.
Row | SMILES | activity change, negative = inhibition | Potency
3 | Cc1c(C(=O)N2CCCC2)oc2ccc(Br)cc12 | inconclusive: -86.5% [inhibitor] | 
20 | Cc1c(Br)ccc(NC(=O)Cn2nc(-c3cccs3)ccc2=O)c1C |  | active: 17.8 µM
35 | O=C(NCCC1=CCCCC1)c1ccc(Br)o1 |  | inconclusive: 89.1 µM [inhibitor, single point]
59 | N#C/C(=C\c1ccc(O)c(Br)c1)C(=O)NCc1ccccc1 | inactive: -0.367% | 
